# PubChem BioAssay AID504744 – Drosophila RNAi Screening Center, 2011
# Screen: 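Identify dsRNAs that increase or decrease phospho-dAkt after insulin treatment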 (primary screen)
# System: Drosophila Kc167 cells
# Reagent: long dsRNA against Drosophila genes, 250 ng dsRNA per well of a 384-well plate
# Duration: 3 days of knock-down, then overnight serum-free starvation before stimulation
# Challenge: bovine insulin at 387 nM for 10 minutes after 12 h without serum
# Detection: 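In-cell antibody fluorescence for phospho-dAkt in each well over DNA-dye signal, with log2 residuals expressed as z-scores adjusted for cell count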
# Call rule: 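Hit in the insulin screen when the two-replicate mean z-score is more extreme than plus or minus 2.5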
# In all, the deposit lists about 23,000 reagents; this is an unselected part of those with a known target gene and a result. In the full data, 98 (0.43%) were called active. 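Only hit calls are given; the phospho-dAkt signals, z-scores and hit direction were not deposited.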 Reagents against one gene are numbered here. A plus sign joins genes that one reagent is predicted to hit.
gene,dsRNA no.,call
galectin,1,inactive
Hem (HEM-protein),1,inactive
Pex5 (Peroxin 5),1,inactive
CG13404,1,inactive
PK2-R2 (Pyrokinin 2 receptor 2),1,inactive
CG14926,1,inactive
RIC-3 (RIC3 acetylcholine receptor chaperone),1,inactive
RIC-3 (RIC3 acetylcholine receptor chaperone),2,inactive
CG9312,1,inactive
CG9689,1,inactive
CG9782,1,inactive
CG9782,2,inactive
Dcr-2 (Dicer-2),1,inactive
CG33080,1,inactive
CG33080,2,inactive
CG33080,3,inactive
CG4927,1,inactive
CG9003,1,inactive
Neurl4 (Neuralized E3 ubiquitin protein ligase 4),1,inactive
CG18262,1,inactive
mtsh (mitoshell),1,inactive
Ugt303B2 (UDP-glycosyltransferase family 303 member B2),1,inactive
Ugt303B2 (UDP-glycosyltransferase family 303 member B2),2,inactive
Fpps (Farnesyl pyrophosphate synthase),1,inactive
fax (failed axon connections),1,inactive
enok (enoki mushroom),1,inactive
CG33557,1,inactive
CG7335,1,inactive
CG13306,1,inactive
CG14507,1,inactive
wb (wing blister),1,inactive
wb (wing blister),2,inactive
Diap1 (Death-associated inhibitor of apoptosis 1),1,inactive
fog (folded gastrulation),1,inactive
CG31300,1,inactive
Xpac (Xeroderma pigmentosum group A-like),1,inactive
GEFmeso (Guanine nucleotide exchange factor in mesoderm),1,inactive
GEFmeso (Guanine nucleotide exchange factor in mesoderm),2,inactive
GEFmeso (Guanine nucleotide exchange factor in mesoderm),3,inactive
RhoGAP102A (Rho GTPase activating protein at 102A),1,inactive
RhoGAP102A (Rho GTPase activating protein at 102A),2,inactive
CG31882,1,inactive
CG5334,1,inactive
CG3588,1,inactive
Nepl10 (Neprilysin-like 10),1,inactive
Sdr (Secreted decoy of InR),1,inactive
CG31174,1,inactive
CG9205,1,inactive
CG12155,1,inactive
CG14270,1,inactive
Adar (Adenosine deaminase acting on RNA),1,inactive
unc79 (uncoordinated 79),1,inactive
yellow-b,1,inactive
Dlip2 (Dorsal interacting protein 2),1,inactive
cad (caudal),1,inactive
Cap-D3 + tomb,1,inactive
CG11384,1,inactive
CG9399,1,inactive
"SdhC (Succinate dehydrogenase, subunit C)",1,inactive
CG6230,1,inactive
CG32248,1,inactive
Gr21a (Gustatory receptor 21a),1,inactive
c12.1,1,inactive
PEK (pancreatic eIF-2alpha kinase),1,inactive
CG18428,1,inactive
RpL13 (Ribosomal protein L13),1,inactive
CG34015,1,inactive
Ndf (Nucleosome-destabilizing factor),1,inactive
Obp56e (Odorant-binding protein 56e),1,inactive
Rtc1,1,inactive
EndoGI (Endonuclease G inhibitor),1,inactive
Mul1 (Mitochondrial E3 ubiquitin protein ligase 1),1,inactive
Mvl (Malvolio),1,inactive
qkr58E-1 (quaking related 58E-1),1,inactive
CG5245,1,inactive
Upf2,1,inactive
OtopLa (Otopetrin-like a),1,inactive
OtopLa (Otopetrin-like a),2,inactive
Panx (Panoramix),1,inactive
Marc (Mitochondrial amidoxime reducing component),1,inactive
Lrch (Leucine-rich-repeats and calponin homology domain protein),1,inactive
Mal-A2 (Maltase A2),1,inactive
Task7 (TWIK-related acid-sensitive K[+] channel 7),1,inactive
CG40045,1,inactive
RnrL (Ribonucleoside diphosphate reductase large subunit),1,inactive
CG32815,1,inactive
CG17327,1,inactive
SA2 (Stromalin 2),1,inactive
mei-41 (meiotic 41),1,inactive
CG13196,1,inactive
lectin-29Ca,1,inactive
smal (smoke alarm),1,inactive
smal (smoke alarm),2,inactive
smal (smoke alarm),3,inactive
smal (smoke alarm),4,inactive
smal (smoke alarm),5,inactive
Alp11 (Alkaline phosphatase 11),1,inactive
Shmt (Serine hydroxymethyl transferase),1,inactive
Shawn + Tyler,1,inactive
Shawn + Tyler,2,inactive
cN-IIIB (cytosolic 5'-nucleotidase IIIB),1,inactive
CG13043,1,inactive
CG11663,1,inactive
Vha100-3 (Vacuolar H[+] ATPase 100kD subunit 3),1,inactive
Tsp42Eh (Tetraspanin 42Eh),1,inactive
CG15128,1,inactive
Cyp9c1 (Cytochrome P450 9c1),1,inactive
